# The list is a part of this screen's results and no random one: it is rich in T/C values a quarter to a half above the control, in often repeated tests (any T/C) and in doses without a T/C. Further doses and runs are listed elsewhere. T/C gives the treated animals as a percentage of the vehicle group. Some entries give survivors of the animals treated and no T/C: the source holds a T/C of zero for them, seemingly a mark for toxic or unscored doses. Some doses without a T/C left all or most animals alive at the check, yet need not have been tolerated: the source hardly ever lists a survival T/C far under the control, and the zero likely stands for such cases as well. Counts of survivors are from the toxicity check (mostly the fifth day) where no day follows; animals may have died later. Schedules are NCI's codes, read here as Q, the interval in days (D) or hours (H), X, the number of doses. Some entries were tested several times; the values are given in rising order. For survival time, this PubChem deposit counts one and a half times the control or more as active, and values a quarter to a half above the control carry no call in these data; other NCI protocols may use other cut-offs.
# Tested on: CD2F1 mice, L1210 leukemia ip, survival T/C
# Test: NCI In Vivo Anticancer Drug Screen. Data for tumor model L1210 Leukemia (intraperitoneal) in CD2F1 (CDF1) mice
# Details: higher T/C = longer survival
# Summary of the method: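 Compound-dosed mice with transplantable tumor versus matched vehicle controls; endpoint ratio T/C reported.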
# [1] = T/C endpoint: mean survival time, dose: 400.0 mg/kg/injection, schedule: Q01DX009 (ip), vehicle: saline with Tween-80
# [2] = T/C endpoint: mean survival time, dose: 400.0 mg/kg/injection, schedule: Q04DX003 (ip), vehicle: saline with Tween-80
# [3] = T/C endpoint: mean survival time, dose: 400.0 mg/kg/injection, schedule: Q04DX002 (ip), vehicle: saline with Tween-80
smiles,measurement,setting,value
Oc1cccc2ccccc12,survivor count,"T/C endpoint: median survival time, dose: 800.0 mg/kg/injection, schedule: Q01DX005 (ip), vehicle: water",0 of 6
COc1ccc(OC)c(NC(=O)NNc2ccc([N+](=O)[O-])cc2[N+](=O)[O-])c1,survivor count,[1],4 of 6
CC[C@@]1(O)C(=O)OCc2c1cc1n(c2=O)Cc2cc3c(N)cccc3nc2-1,T/C,"T/C endpoint: median survival time, dose: 0.18 mg/kg/injection, schedule: Q01DX005 (ip), vehicle: saline with Tween-80",137 % of control
same,survivor count,"T/C endpoint: median survival time, dose: 4.0 mg/kg/injection, schedule: Q01DX005 (ip), vehicle: saline with Tween-80",6 of 6
same,survivor count,"T/C endpoint: median survival time, dose: 10.0 mg/kg/injection, schedule: Q04DX002 (ip), vehicle: saline with Tween-80",6 of 6
same,survivor count,"T/C endpoint: median survival time, dose: 20.0 mg/kg/injection, schedule: Q04DX002 (ip), vehicle: saline with Tween-80",6 of 6
same,survivor count,"T/C endpoint: median survival time, dose: 40.0 mg/kg/injection, schedule: Q04DX002 (ip), vehicle: saline with Tween-80",6 of 6
CCOC(=O)C(=C=C(C(=O)OCC)C(=O)OCC)C(=O)OCC,survivor count,"T/C endpoint: mean survival time, dose: 25.0 mg/kg/injection, schedule: Q01DX005 (ip), vehicle: saline with Tween-80",3 of 3
same,survivor count,"T/C endpoint: mean survival time, dose: 100.0 mg/kg/injection, schedule: Q01DX005 (ip), vehicle: saline with Tween-80",3 of 3
O=C(O)C(NC1CCCCC1)c1ccccc1 (stereo not given),survivor count,[2],2 of 6
CN(C)c1ccc(/C=N/NC(=O)COc2ccccc2)cc1,survivor count,[1],6 of 6
CC(C)=CC[P+](C)(c1ccccc1)c1ccccc1,survivor count,"T/C endpoint: mean survival time, dose: 6.25 mg/kg/injection, schedule: Q04DX003 (ip), vehicle: saline",0 of 3
same,survivor count,"T/C endpoint: mean survival time, dose: 12.5 mg/kg/injection, schedule: Q04DX003 (ip), vehicle: saline",0 of 3
same,survivor count,"T/C endpoint: mean survival time, dose: 25.0 mg/kg/injection, schedule: Q04DX003 (ip), vehicle: saline",0 of 3
same,survivor count,"T/C endpoint: mean survival time, dose: 100.0 mg/kg/injection, schedule: Q04DX003 (ip), vehicle: saline with Tween-80",0 of 3
same,survivor count,"T/C endpoint: mean survival time, dose: 200.0 mg/kg/injection, schedule: Q04DX003 (ip), vehicle: saline with Tween-80",0 of 3
same,survivor count,[2],0 of 3
C/C(=N/NC(N)=S)c1ccc(NC(=O)C(Cl)Cl)cc1,survivor count,"T/C endpoint: mean survival time, dose: 300.0 mg/kg/injection, schedule: Q01DX001 (ip), vehicle: saline",0 of 6
COC(=O)C1C(=O)CC2N(C)C1C(C)(C)C2(C)C (stereo not given),survivor count,[3],0 of 3
Clc1nc2n[nH]nc2nc1Cl,survivor count,"T/C endpoint: mean survival time, dose: 100.0 mg/kg/injection, schedule: Q04DX003 (ip), vehicle: saline",0 of 6
same,survivor count,"T/C endpoint: mean survival time, dose: 200.0 mg/kg/injection, schedule: Q04DX003 (ip), vehicle: saline",0 of 6
same,survivor count,"T/C endpoint: mean survival time, dose: 400.0 mg/kg/injection, schedule: Q04DX003 (ip), vehicle: saline",0 of 6
NC(=S)N/N=C/c1ccc(F)cn1,T/C,"T/C endpoint: mean survival time, dose: 25.0 mg/kg/injection, schedule: Q04DX002 (ip), vehicle: saline with Tween-80",139 % of control
same,survivor count,"T/C endpoint: mean survival time, dose: 37.5 mg/kg/injection, schedule: Q04DX003 (ip), vehicle: saline with Tween-80",5 of 10
same,survivor count,"T/C endpoint: mean survival time, dose: 50.0 mg/kg/injection, schedule: Q04DX002 (ip), vehicle: saline with Tween-80",1 of 3
same,survivor count,"T/C endpoint: mean survival time, dose: 56.25 mg/kg/injection, schedule: Q04DX003 (ip), vehicle: saline with Tween-80",0 of 10
same,survivor count,"T/C endpoint: mean survival time, dose: 100.0 mg/kg/injection, schedule: Q04DX002 (ip), vehicle: saline with Tween-80",0 of 3
same,survivor count,"T/C endpoint: mean survival time, dose: 200.0 mg/kg/injection, schedule: Q04DX002 (ip), vehicle: saline with Tween-80",0 of 3
same,survivor count,[3],0 of 3
Cc1ccc2c(ccc(CC(=S)[S-])[n+]2C)c1,survivor count,"T/C endpoint: mean survival time, dose: 200.0 mg/kg/injection, schedule: Q01DX009 (ip), vehicle: Klucel (hydroxypropylcellulose) (HPC)",0 of 6 and 5 of 6
CN(C)c1ccc(N=Nc2cccc(C(=O)[O-])c2)cc1.CN(C)c1ccc(N=Nc2cccc(C(=O)[O-])c2)cc1.NC1CCCCC1N.O=[N+]([O-])O.[Pt+4],T/C,"T/C endpoint: median survival time, dose: 25.0 mg/kg/injection, schedule: Q04DX003 (ip), vehicle: saline with Tween-80",128 % of control
same,T/C,"T/C endpoint: median survival time, dose: 50.0 mg/kg/injection, schedule: Q04DX003 (ip), vehicle: saline with Tween-80",128 and 142 % of control
same,T/C,"T/C endpoint: median survival time, dose: 200.0 mg/kg/injection, schedule: Q04DX003 (ip), vehicle: saline with Tween-80",141 % of control
O=C(COc1ccccc1)N/N=C/c1ccccc1O,survivor count,"T/C endpoint: mean survival time, dose: 200.0 mg/kg/injection, schedule: Q01DX009 (ip), vehicle: saline with Tween-80",2 of 6
same,survivor count,[1],2 of 6

# Source: PubChem BioAssay AID256 (DTP/NCI, 2004)
